Results deposited as PubChem BioAssay AID1259254 (NCATS, 2017).

Test: 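Gene knock-downs that lead to re-replication, shown by excess G2 DNA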 (primary screen)
Cells: human HCT116 colorectal cancer cells
Reagents: single siRNA against human genes
Duration: 3 days
Measurement: 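Imaged Hoechst DNA stain sorts each cell into a cycle phase by DNA amount; per plate, G2 fraction set to 0% for non-targeting and 100% for GMNN siRNA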
Scale: G2 robust z-score: higher = more G2 cells, more excess DNA replication
Active means: 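An siRNA counts as active if its G2 robust z-score lies at least 5 MADs above the screen median; here such calls match roughly 38% of GMNN control or more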
This is an unselected part of about 59,000 reagents tested. Of all reagents, about 1,550 (2.6%) were called active. 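G2 share is only a proxy for re-replication; each gene was hit by three separate siRNAs, and active genes were retested.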 A number with no mark means an inactive call. The numbers tell different reagents against one gene apart. Further read-outs or replicates are left out here. The record does not give: the amount of reagent.

G2 robust z-score, by gene and reagent
SREBF2 (sterol regulatory element binding transcription factor 2): #1 -0.463; #2 4.87; #3 -0.611
STX18 (syntaxin 18): #1 0.136; #2 -0.284; #3 -0.478
CFAP58 (cilia and flagella associated protein 58): #1 0.136; #2 0.979; #3 -0.534
CT55P2 (CT55 pseudogene 2): #1 0.924; #2 -0.896; #3 1.24
SEPTIN7 (septin 7): #1 0.598; #2 0.00559; #3 7.93 (active)
INTS15 (integrator complex subunit 15): #1 0.391; #2 -0.21; #3 0.569
CSF3R (colony stimulating factor 3 receptor): #1 -0.386; #2 -0.601; #3 4.15
NUP210L (nucleoporin 210 like): #1 -0.354; #2 -1.21; #3 -0.755
APEX2 (apurinic/apyrimidinic endodeoxyribonuclease 2): #1 0.155; #2 6.85 (active); #3 -0.906
PSD (pleckstrin and Sec7 domain containing): #1 -0.155; #2 -0.44; #3 1.52
